Experimental findings from PMC10857777 are described below.

Protein sequences, listed by entry. Tags and fused reporters are not part of them.
UniProt Q92993: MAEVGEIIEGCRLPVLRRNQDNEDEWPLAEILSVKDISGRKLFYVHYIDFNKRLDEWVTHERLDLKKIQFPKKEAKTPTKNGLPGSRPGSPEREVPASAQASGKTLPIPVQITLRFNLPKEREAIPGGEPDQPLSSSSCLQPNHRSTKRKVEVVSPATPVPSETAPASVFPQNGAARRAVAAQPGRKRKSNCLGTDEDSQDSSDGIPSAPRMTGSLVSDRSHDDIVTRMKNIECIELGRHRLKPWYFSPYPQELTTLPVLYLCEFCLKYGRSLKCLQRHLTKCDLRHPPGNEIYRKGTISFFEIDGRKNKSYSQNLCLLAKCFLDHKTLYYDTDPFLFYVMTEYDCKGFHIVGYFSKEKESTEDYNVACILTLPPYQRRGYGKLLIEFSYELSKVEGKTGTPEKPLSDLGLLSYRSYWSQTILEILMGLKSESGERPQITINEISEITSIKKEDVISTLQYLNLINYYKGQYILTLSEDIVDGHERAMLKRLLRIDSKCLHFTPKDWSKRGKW

Results are given in words; binding and its absence hold for the method and conditions named. In cells and extracts the contact can be indirect. Some entries that bind do so weakly or less than the wild type.

For the test, the target named is T1, Glycerol-3-phosphate acyltransferase 3 (human (endogenous in HCT-116)) (UniProt Q53EU6).
T1 sequence: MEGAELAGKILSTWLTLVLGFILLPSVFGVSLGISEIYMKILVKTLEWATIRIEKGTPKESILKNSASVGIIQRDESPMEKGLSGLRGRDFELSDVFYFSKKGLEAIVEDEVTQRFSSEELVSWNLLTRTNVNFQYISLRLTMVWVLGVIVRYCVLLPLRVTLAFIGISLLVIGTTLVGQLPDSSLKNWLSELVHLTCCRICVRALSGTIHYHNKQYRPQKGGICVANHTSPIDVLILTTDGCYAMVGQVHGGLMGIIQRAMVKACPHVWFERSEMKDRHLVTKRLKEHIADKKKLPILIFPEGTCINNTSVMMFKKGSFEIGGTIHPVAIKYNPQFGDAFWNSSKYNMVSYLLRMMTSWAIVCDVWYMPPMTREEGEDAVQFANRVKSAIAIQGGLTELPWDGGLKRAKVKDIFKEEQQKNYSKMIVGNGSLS
The test can be described thus: co-IP; endogenous proteins; cells lysed with NP-40 lysis buffer; Protein A&G magnetic beads; anti-rabbit and mouse IgG as negative controls; immunoblot. For orientation: Immunoblotting shows a protein as a band on a membrane.

As for “TIP60 (from UniProt Q92993 1-513) (enzyme)”, the binding entry is given as “binds”.
